Experimental data: patent US6416998B1, “Plasmid encoding a modified steroid hormone” (Baylor College of Medicine, priority 1992, dated 2002)
At least one structure is not confirmed: it was looked up by name or label, or the drawing left a doubt.

Legend:
wild type GR = test: Transcriptional repression, TRE2tkCAT (AP-1) reporter, CV1 cells, TPA stimulated; type: cell-based, rat or human; details: pretreated, then TPA
[1] = system: GR-PR fusion protein receptor; test: In vitro transfection into CV1 cells, GRE CAT reporter; type: cell-based, human

SMILES | level of CAT protein (wild type GR) | transcriptional activation (CAT protein) [1]
CC#C[C@]1(O)CC[C@H]2[C@@H]3CCC4=CC(=O)CCC4=C3[C@@H](c3ccc(N(C)C)cc3)C[C@@]21C [RU486, 11β-(4-dimethylaminophenyl)-17β-hydroxy-17α-propinyl-4,9-estradiene-3-one] | decrease | activated
C[C@@H]1C[C@H]2[C@@H]3CCC4=CC(=O)C=C[C@]4(C)[C@@]3(F)[C@@H](O)C[C@]2(C)[C@@]1(O)C(=O)CO [dexamethasone] | decrease | not by dexamethasone
